These results are taken from the supplement of paper PMC10849652.

Amino acid sequences for entries named in this document (tags omitted). A change or cut given only in a name is not applied to a line headed by its entry.
UniProt Q13416: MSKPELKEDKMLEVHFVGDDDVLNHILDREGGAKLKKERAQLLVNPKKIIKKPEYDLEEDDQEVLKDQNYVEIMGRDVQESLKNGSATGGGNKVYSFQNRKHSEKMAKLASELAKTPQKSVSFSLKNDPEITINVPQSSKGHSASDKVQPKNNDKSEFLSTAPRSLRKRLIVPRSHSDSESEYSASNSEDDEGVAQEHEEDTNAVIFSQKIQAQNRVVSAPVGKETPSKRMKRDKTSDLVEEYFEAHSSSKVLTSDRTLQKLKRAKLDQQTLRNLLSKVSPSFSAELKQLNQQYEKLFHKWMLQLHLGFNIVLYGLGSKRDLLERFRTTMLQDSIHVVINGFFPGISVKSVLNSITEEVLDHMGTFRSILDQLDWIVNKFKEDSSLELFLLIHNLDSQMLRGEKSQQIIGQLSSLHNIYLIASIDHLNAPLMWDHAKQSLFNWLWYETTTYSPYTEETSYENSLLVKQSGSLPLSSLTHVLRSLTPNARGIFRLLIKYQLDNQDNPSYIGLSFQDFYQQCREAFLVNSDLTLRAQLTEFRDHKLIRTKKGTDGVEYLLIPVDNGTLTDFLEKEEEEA
UniProt Q9H4L5: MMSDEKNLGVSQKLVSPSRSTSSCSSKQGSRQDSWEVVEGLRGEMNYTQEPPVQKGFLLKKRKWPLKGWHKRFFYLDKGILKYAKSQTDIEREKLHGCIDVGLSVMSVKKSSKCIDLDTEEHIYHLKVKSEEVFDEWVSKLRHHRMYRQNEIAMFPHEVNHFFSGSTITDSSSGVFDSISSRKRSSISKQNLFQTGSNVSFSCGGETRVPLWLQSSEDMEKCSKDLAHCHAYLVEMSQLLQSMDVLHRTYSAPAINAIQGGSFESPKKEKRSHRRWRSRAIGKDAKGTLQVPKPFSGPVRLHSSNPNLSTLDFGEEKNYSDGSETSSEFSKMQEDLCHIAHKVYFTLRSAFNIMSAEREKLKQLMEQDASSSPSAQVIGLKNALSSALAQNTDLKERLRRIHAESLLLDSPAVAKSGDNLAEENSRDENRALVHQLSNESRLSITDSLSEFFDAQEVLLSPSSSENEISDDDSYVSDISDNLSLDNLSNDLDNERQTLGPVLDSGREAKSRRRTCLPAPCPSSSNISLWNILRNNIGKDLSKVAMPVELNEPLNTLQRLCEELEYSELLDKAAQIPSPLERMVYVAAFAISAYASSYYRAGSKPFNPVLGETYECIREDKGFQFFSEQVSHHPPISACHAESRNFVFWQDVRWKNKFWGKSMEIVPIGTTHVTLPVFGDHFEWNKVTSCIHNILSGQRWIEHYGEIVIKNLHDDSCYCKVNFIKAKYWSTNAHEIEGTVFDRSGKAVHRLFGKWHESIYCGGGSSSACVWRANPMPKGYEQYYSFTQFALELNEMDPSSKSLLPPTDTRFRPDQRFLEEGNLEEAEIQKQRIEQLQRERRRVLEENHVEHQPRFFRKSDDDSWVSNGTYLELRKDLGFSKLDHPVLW
UniProt Q9NP74: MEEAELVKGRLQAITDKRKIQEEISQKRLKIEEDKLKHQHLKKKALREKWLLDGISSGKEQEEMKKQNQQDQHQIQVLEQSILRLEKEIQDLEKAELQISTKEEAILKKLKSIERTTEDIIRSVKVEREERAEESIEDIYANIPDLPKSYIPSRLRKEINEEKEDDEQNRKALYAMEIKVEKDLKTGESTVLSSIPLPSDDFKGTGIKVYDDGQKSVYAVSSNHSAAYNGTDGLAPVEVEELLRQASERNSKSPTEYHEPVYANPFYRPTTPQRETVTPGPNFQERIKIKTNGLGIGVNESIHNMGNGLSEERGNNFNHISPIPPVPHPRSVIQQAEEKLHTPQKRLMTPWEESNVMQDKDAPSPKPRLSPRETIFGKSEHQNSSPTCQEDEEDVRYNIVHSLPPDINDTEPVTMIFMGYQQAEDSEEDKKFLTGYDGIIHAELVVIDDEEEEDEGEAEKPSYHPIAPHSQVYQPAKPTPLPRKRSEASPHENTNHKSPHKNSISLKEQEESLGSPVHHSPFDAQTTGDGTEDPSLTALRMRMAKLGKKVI
UniProt Q9NWT1: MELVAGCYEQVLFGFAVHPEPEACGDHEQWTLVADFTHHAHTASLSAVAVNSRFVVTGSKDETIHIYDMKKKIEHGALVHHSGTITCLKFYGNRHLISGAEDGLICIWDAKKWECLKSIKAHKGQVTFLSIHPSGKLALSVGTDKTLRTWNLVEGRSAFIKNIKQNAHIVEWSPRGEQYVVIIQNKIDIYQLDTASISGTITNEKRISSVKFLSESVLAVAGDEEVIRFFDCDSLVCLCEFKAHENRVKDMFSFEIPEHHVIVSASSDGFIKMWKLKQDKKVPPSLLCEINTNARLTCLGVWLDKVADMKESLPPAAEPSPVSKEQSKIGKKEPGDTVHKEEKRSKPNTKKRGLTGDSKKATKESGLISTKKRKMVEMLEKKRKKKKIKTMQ
UniProt Q02218: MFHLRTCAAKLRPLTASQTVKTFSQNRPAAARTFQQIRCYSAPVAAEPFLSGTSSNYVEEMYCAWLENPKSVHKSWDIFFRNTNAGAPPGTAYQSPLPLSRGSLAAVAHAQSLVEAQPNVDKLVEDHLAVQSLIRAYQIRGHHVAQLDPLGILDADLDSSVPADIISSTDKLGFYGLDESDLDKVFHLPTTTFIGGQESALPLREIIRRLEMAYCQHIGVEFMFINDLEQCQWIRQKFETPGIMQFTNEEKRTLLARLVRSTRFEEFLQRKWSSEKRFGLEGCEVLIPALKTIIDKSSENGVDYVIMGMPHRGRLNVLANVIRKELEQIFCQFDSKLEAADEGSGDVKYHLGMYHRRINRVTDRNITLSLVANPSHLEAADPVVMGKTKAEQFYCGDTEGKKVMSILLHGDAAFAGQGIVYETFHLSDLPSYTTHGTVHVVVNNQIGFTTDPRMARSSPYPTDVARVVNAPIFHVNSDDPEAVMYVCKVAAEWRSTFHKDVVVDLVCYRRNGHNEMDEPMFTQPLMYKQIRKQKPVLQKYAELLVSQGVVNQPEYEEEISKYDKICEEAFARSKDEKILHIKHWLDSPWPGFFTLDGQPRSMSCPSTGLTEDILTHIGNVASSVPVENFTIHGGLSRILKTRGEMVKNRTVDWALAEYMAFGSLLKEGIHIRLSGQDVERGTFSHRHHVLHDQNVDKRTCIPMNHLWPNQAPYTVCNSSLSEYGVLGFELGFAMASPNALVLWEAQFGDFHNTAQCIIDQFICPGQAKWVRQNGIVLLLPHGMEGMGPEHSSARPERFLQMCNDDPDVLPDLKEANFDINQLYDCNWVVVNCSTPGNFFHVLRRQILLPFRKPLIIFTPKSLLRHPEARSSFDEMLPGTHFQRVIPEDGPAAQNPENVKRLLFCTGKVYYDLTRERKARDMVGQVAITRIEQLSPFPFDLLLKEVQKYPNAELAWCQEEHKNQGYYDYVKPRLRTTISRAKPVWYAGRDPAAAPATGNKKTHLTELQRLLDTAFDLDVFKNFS
UniProt Q9NRP0: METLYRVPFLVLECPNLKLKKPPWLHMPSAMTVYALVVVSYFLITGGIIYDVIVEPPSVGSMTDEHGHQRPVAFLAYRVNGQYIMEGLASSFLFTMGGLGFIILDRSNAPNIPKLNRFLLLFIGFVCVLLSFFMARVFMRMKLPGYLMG
UniProt P00480: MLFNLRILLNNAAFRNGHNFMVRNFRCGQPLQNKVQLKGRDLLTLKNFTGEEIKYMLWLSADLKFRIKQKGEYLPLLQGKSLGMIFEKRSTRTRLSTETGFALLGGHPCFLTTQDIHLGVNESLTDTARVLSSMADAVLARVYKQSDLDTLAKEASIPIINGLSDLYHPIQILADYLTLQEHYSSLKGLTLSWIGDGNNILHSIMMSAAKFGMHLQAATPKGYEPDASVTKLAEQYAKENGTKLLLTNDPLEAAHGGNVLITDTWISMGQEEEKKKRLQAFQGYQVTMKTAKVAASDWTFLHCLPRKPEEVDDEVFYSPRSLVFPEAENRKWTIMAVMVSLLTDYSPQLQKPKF
UniProt Q96E22: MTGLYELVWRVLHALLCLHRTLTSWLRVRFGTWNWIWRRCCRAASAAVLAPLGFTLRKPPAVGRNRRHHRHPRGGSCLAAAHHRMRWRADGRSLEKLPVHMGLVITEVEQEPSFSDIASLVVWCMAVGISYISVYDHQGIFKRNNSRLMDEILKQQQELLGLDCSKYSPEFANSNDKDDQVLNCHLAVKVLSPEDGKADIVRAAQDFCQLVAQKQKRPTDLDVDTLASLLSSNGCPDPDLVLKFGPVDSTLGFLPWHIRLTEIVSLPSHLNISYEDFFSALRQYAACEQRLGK
UniProt Q8N1F7: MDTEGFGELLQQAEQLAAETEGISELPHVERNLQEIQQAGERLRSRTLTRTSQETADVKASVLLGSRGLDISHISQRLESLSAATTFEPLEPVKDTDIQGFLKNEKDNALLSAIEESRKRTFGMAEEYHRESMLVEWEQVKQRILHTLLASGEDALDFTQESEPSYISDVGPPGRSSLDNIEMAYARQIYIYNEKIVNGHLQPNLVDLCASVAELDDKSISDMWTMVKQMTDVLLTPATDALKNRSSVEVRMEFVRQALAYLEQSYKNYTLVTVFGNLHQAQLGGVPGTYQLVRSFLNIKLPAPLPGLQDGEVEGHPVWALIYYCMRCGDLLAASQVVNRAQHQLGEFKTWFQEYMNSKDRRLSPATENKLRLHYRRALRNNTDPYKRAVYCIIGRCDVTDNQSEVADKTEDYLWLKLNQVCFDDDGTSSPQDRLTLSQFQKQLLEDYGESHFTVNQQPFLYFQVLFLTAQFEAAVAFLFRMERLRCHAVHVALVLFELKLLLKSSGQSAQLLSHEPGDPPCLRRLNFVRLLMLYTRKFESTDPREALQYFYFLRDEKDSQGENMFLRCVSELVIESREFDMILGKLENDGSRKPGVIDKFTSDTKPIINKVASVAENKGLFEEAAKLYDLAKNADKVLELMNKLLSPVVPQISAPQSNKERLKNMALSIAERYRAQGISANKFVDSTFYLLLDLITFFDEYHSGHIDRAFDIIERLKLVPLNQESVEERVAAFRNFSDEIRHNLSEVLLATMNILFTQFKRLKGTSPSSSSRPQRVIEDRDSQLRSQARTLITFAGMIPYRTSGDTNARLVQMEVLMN
UniProt Q9NTK5, whole entry, looked up: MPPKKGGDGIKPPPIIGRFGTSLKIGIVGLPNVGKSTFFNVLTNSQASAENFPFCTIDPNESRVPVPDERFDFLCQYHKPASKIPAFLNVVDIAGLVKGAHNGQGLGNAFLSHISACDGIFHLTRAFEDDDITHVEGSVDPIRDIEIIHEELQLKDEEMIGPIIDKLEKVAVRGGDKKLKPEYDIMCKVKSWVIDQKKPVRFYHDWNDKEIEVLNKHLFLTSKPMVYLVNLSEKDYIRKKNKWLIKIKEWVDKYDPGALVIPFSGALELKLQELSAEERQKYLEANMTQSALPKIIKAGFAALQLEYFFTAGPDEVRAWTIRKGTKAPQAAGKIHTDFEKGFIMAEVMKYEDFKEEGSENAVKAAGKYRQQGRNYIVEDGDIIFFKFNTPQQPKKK
UniProt Q9BY11: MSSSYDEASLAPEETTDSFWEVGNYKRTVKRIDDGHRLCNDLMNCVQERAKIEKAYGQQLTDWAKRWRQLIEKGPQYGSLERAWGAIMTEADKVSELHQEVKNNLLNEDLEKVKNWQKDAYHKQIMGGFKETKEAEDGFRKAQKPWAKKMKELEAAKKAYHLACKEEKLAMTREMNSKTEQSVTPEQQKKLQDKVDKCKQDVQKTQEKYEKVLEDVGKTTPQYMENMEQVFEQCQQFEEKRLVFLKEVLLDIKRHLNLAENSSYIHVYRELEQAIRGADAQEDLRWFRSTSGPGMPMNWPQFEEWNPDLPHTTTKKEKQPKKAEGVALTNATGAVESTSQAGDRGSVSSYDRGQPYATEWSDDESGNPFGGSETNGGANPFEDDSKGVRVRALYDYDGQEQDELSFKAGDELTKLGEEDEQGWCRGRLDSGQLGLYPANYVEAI
UniProt Q13438: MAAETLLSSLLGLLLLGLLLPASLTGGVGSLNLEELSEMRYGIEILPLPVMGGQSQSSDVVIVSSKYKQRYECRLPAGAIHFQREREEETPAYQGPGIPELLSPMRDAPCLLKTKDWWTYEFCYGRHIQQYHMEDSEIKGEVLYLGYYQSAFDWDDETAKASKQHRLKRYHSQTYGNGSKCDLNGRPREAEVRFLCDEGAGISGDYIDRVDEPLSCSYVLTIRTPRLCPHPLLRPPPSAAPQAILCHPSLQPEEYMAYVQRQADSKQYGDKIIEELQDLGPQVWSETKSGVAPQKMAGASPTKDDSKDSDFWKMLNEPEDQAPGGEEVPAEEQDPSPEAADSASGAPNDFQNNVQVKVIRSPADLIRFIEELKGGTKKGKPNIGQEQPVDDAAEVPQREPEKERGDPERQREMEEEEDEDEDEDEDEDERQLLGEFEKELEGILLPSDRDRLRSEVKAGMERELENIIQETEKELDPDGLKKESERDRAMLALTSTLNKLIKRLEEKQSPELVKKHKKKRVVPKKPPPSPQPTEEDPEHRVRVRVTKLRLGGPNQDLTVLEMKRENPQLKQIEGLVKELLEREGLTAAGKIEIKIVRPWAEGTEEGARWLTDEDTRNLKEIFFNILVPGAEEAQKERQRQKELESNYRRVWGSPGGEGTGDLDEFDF

Test in all cases: log2 fold change, soluble protein after heating vs DMSO (PISA); higher = thermal stabilisation; K562 lysate, 10 uM; active = over 0.2 and 3.5 SD of the protein, either way, in both replicates (recomputed)
Compound in one experiment: CN1CC[C@H](c2c(O)cc(O)c3c(=O)cc(-c4ccccc4Cl)oc23)[C@H](O)C1 [alvocidib]
A digest of the protocol: (§1)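 Thermal stability, expressed as log-two fold change relative to solvent controls, is given from duplicates. Crude K562 extract in PBS pH 7.4 with 1 mM MgCl2, at 1 mg/mL protein, was treated with 10 μM compound for 30 min and heated in aliquots for 3 min across 48°C-58°C. After pooling, adjustment to 0.5% NP-40 at 4°C and centrifugation at 21,000xg for 90 min, supernatant protein was measured by TMTpro 16plex LC-MS/MS with channel sums equalised.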

Compound in a further experiment: CN1CCc2c(c3ccccc3n2Cc2ccc(C(=O)NO)cc2)C1 [Tubastatin A]
A digest of the protocol: as §1

Compound in experiment [1]: CNC(=O)C1=CC=CC=C1NC2=NC(=NC=C2Cl)NC3=C(C=C(C=C3)N4CCOCC4)OC
The gist of the method:
as §1

Compound in another experiment: CNC(=O)c1ccc(Nc2ncc(C(F)(F)F)c(NCc3nccnc3N(C)S(C)(=O)=O)n2)cc1 [defactinib]
A digest of the protocol: as §1

Compound in experiment [2]: CNc1nc(-c2ccc3c(N)n[nH]c3c2)cc(N2C[C@@H](C(=O)NC3CCCCC3)CC[C@H]2C)n1
A digest of the protocol:
as §1

Compound in another experiment: COC(=O)N[C@@H](C)CNc1nccc(-c2cn(C(C)C)nc2-c2cc(Cl)cc(NS(C)(=O)=O)c2F)n1 [encorafenib]
The gist of the method:
as §1

Compound in experiment [3]: COC(=O)[C@H](CCSC)NC(=O)C1=C(C=C(C=C1)NC[C@H](CS)N)C2=CC=CC=C2
A digest of the protocol:
as §1

Compound in the next experiment: COc1cc(Nc2ncc3c(n2)-c2ccc(Cl)cc2C(c2c(F)cccc2OC)=NC3)ccc1C(=O)O [alisertib]
A digest of the protocol:
as §1

Compound in experiment [4]: COc1cc2nc(-c3cc(F)ccc3O)nc(N[C@@H]3CNC[C@H]3C(C)(C)O)c2cc1OC
A digest of the protocol: as §1

Compound in another experiment: COc1cc2ncnc(Nc3ccc(F)c(Cl)c3)c2cc1OCCCN1CCOCC1 [gefitinib]
The gist of the method:
as §1

Some of the results follow.

Regarding PAICS (UniProt P22234), the log2 fold change with alvocidib was inactive: -0.029; in the experiment with Tubastatin A it was inactive: 0.073; in experiment [1], inactive: -0.017; in the experiment with defactinib, inactive: -0.023; in [2] it was inactive: 0.023; with encorafenib it was inactive: -0.05. The log2 fold change was inactive: -0.05 in experiment [3], inactive: 0.015 in the experiment with alisertib, inactive: 0.018 in experiment [4] and inactive: -0.012 with gefitinib.

As for ORC2 (UniProt Q13416), the log2 fold change with alvocidib was inactive: 0.034; in the experiment with Tubastatin A, inactive: -0.161; in experiment [1], inactive: 0.038; with defactinib, inactive: 0.034; in experiment [2], inactive: -0.008; with encorafenib, inactive: 0.018. Moreover, the log2 fold change is inactive: 0.094 in [3], inactive: 0.012 with alisertib, inactive: -0.002 in experiment [4] and inactive: -0.011 with gefitinib.

On to OSBPL3 isoform 2 (UniProt Q9H4L5), for which the log2 fold change was inactive: -0.013 with alvocidib; inactive: -0.161 in the experiment with Tubastatin A; inactive: 0.056 in [1]; inactive: -0.11 in the experiment with defactinib; inactive: -0.033 in experiment [2]; inactive: 0.03 with encorafenib. Moreover, the log2 fold change in experiment [3] is inactive: 0.052; with alisertib it was inactive: -0.043; in experiment [4], inactive: -0.002; with gefitinib it was inactive: 0.206.

On to PAICS (UniProt E9PBS1), for which the log2 fold change was inactive: 0.269 in the experiment with alvocidib; inactive: 0.11 in the experiment with Tubastatin A; inactive: -0.194 in [1]; inactive: 0.082 in the experiment with defactinib; inactive: -0.081 in experiment [2]; inactive: 0.026 in the experiment with encorafenib. Moreover, the log2 fold change in [3] was inactive: -0.028; with alisertib it was inactive: -0.085; in experiment [4] it was inactive: 0.099; in the experiment with gefitinib, inactive: 0.126.

PALMD (UniProt Q9NP74): the log2 fold change is inactive: -0.057 with alvocidib; inactive: 0.016 in the experiment with Tubastatin A; inactive: 0.137 in experiment [1]; inactive: 0.044 with defactinib; inactive: -0.017 in [2]; inactive: 0.039 in the experiment with encorafenib. The log2 fold change in experiment [3] is inactive: 0.116; in the experiment with alisertib it was inactive: -0.022; in [4] it was inactive: -0.031; in the experiment with gefitinib, inactive: 0.118.

As for PAK1IP1 (UniProt Q9NWT1), the log2 fold change was inactive: 0.042 with alvocidib; inactive: 0.007 in the experiment with Tubastatin A; inactive: 0.02 in experiment [1]; inactive: -0.01 with defactinib; inactive: 0.046 in experiment [2]; inactive: 0.003 with encorafenib. In addition, the log2 fold change in experiment [3] is inactive: -0.027; with alisertib it was inactive: -0.023; in [4], inactive: 0.015; in the experiment with gefitinib, inactive: -0.009.

As for OGDH (UniProt Q02218), the log2 fold change was inactive: -0.025 with alvocidib; inactive: -0.038 with Tubastatin A; inactive: -0.018 in experiment [1]; inactive: 0.06 with defactinib; inactive: -0.026 in experiment [2]; inactive: -0.017 with encorafenib. The log2 fold change is inactive: 0.114 in [3], inactive: -0.013 with alisertib, inactive: -0.012 in experiment [4] and inactive: -0.032 with gefitinib.

Consider OSTC (UniProt Q9NRP0), for which the log2 fold change with alvocidib is inactive: -0.003; in the experiment with Tubastatin A it was inactive: -0.091; in [1], inactive: 0.019; with defactinib it was inactive: 0.043; in experiment [2], inactive: 0.061; with encorafenib, inactive: 0.037. In addition, the log2 fold change in experiment [3] was inactive: -0.292; with alisertib it was inactive: -0.15; in experiment [4], inactive: -0.048; in the experiment with gefitinib it was inactive: 0.055.

With OTC (UniProt P00480), the log2 fold change with alvocidib was active: -1.18; with Tubastatin A it was inactive: 0.148; in [1], inactive: -0.134; in the experiment with defactinib, inactive: -0.188; in experiment [2], inactive: -0.152; with encorafenib, inactive: -0.047. In addition, the log2 fold change in [3] is inactive: -0.018; in the experiment with alisertib it was inactive: 0.218; in experiment [4], inactive: -0.023; in the experiment with gefitinib it was inactive: 0.184.

Regarding PACSIN3 (UniProt Q9UKS6), the log2 fold change was inactive: 0.081 with alvocidib; inactive: 0.022 in the experiment with Tubastatin A; inactive: -0.039 in experiment [1]; inactive: -0.087 with defactinib; inactive: -0.101 in experiment [2]; inactive: -0.045 in the experiment with encorafenib. For the same target, the log2 fold change in experiment [3] is inactive: -0.054; with alisertib, inactive: -0.056; in experiment [4] it was inactive: -0.013; in the experiment with gefitinib, inactive: 0.029.

On to NUS1 (UniProt Q96E22), for which the log2 fold change with alvocidib is inactive: 0.057; in the experiment with Tubastatin A it was inactive: -0.007; in [1], inactive: 0.048; with defactinib it was inactive: 0.281; in experiment [2], inactive: -0.013; with encorafenib, inactive: -0.056. The log2 fold change was inactive: -0.124 in experiment [3], inactive: -0.012 in the experiment with alisertib, inactive: -0.033 in experiment [4] and inactive: 0.134 with gefitinib.

Turning to NUP93 (UniProt Q8N1F7), the log2 fold change with alvocidib was inactive: -0.006; in the experiment with Tubastatin A it was inactive: -0.085; in experiment [1], inactive: -0.013; with defactinib it was inactive: 0.023; in experiment [2], inactive: -0.097; with encorafenib it was inactive: 0.029. Also, the log2 fold change in experiment [3] is inactive: 0.027; with alisertib, inactive: 0.01; in experiment [4], inactive: -0.007; in the experiment with gefitinib it was inactive: 0.014.

On to OLA1 (UniProt Q9NTK5), for which the log2 fold change in the experiment with alvocidib was inactive: -0.002; with Tubastatin A, inactive: -0.095; in experiment [1], inactive: 0.019; with defactinib, inactive: -0.029; in [2], inactive: -0.02; with encorafenib, inactive: 0.008. The log2 fold change is inactive: -0.004 in [3], inactive: 0.017 with alisertib, inactive: 0.011 in [4] and inactive: -0.026 with gefitinib.

As to PACSIN1 (UniProt Q9BY11), the log2 fold change was inactive: -0.097 with alvocidib; inactive: 0.02 in the experiment with Tubastatin A; inactive: 0.025 in [1]; inactive: -0.001 in the experiment with defactinib; inactive: 0.041 in experiment [2]; inactive: 0.077 with encorafenib. Further, the log2 fold change was inactive: -0.053 in experiment [3], inactive: 0.005 with alisertib, inactive: 0.014 in experiment [4] and inactive: 0.015 with gefitinib.

For the target OS9 (UniProt Q13438), the log2 fold change is inactive: -0.013 with alvocidib; inactive: 0.002 with Tubastatin A; inactive: 0.001 in experiment [1]; inactive: -0.022 with defactinib; inactive: 0.006 in [2]; inactive: -0.006 with encorafenib. Further, the log2 fold change in [3] was inactive: -0.04; with alisertib, inactive: -0.006; in experiment [4] it was inactive: 0.012; with gefitinib it was inactive: 0.013.
